According to paper doi:10.1101/733709:
These are yes or no findings as the source states them, for the method shown. Binding seen in cells or lysates may run through a third protein. A yes stands for co-enrichment or nearness to the bait. Other partners may have been found.

Chains of the proteins cited; added tags and fusions are not shown. Lines headed by an entry give the natural chain unless they say otherwise; changes in a name come on top.
UniProt P25694: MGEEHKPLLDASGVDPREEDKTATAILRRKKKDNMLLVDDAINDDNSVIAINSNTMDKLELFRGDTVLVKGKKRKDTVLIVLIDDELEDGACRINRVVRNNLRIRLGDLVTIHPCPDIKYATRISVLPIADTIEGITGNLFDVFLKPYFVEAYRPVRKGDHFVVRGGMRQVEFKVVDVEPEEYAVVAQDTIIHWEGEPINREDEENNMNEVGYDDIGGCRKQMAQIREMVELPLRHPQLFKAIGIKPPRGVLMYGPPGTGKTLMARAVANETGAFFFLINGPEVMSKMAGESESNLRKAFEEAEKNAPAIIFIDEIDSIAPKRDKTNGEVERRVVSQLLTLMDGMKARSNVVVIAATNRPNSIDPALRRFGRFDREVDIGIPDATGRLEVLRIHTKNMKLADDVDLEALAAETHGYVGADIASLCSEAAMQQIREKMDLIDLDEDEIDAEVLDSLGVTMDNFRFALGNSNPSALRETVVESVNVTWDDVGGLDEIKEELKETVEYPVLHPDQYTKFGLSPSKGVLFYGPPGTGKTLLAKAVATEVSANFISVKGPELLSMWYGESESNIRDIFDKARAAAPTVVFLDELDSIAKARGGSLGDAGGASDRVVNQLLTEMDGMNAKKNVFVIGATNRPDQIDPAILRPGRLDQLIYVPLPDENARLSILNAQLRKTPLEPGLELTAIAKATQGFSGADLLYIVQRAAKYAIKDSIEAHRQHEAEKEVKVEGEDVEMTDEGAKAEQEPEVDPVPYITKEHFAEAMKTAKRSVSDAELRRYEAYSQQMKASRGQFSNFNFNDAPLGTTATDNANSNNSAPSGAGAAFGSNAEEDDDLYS
UniProt Q12532: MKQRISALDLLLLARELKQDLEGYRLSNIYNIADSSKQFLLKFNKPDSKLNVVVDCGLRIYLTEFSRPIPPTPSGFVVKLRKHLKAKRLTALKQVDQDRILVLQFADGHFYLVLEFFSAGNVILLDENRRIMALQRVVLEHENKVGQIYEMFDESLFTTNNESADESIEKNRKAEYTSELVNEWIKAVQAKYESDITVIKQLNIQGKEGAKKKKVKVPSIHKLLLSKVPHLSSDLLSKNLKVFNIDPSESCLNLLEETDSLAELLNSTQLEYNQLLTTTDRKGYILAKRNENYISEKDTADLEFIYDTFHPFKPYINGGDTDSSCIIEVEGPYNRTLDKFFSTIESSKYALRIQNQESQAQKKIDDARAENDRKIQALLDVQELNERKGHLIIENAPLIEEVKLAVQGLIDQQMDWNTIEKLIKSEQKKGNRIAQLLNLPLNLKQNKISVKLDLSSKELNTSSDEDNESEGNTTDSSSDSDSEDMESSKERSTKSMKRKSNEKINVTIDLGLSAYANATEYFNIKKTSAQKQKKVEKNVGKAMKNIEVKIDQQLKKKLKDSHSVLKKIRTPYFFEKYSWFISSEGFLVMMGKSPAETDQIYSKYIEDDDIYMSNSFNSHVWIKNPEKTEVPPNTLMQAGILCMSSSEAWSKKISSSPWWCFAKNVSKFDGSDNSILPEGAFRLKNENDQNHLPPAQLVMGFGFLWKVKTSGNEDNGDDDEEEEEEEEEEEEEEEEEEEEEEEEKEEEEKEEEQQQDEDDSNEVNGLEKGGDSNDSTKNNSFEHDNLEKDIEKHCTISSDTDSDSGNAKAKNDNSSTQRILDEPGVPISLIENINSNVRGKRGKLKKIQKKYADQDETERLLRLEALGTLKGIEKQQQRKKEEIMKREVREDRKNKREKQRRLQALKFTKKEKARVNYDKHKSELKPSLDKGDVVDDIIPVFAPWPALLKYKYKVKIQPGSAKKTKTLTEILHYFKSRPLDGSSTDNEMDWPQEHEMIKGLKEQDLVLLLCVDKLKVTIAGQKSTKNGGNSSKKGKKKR

Target: FLAG-tagged Cdc48-C115S (S. cerevisiae) (UniProt P25694)
Assay: affinity purification with mass spectrometry

binding: binds
Substance: Rqc2 (from UniProt Q12532 1-1038)
